Experiment: Reactivity: methyl esterification by Fisher method, reaction yield by HPLC
Assay type: physicochemical
Conditions: for Reaction yield after 2 hours / Reaction yield after 5 hours: methanol, Dowex 50, 25° C., HPLC

| Structure (SMILES) | Reaction yield after 2 hours [%] | Reaction yield after 5 hours [%] | Reaction achieved after 24 hours (24 hours) [%] |
| --- | --- | --- | --- |
| CC(=O)N[C@H]1[C@H]([C@H](O)[C@H](O)CO)OC(O)(C(=O)O)C[C@@H]1O (stereo partly shown) [Needles 1-1, sialic acid] | 78 | 100 |  |
| CC(=O)N[C@H]1[C@H]([C@H](O)[C@H](O)CO)OC(O)(C(=O)O)C[C@@H]1O (stereo partly shown) [Amorphous Powder 1-1, sialic acid] | 100 | 100 |  |
| CC(=O)N[C@H]1[C@H]([C@H](O)[C@H](O)CO)OC(O)(C(=O)O)C[C@@H]1O (stereo partly shown) [Prisms 1-1, sialic acid] | 57 | 79 | < 100 |

From US5679645A, “Sialic acid powder and process for the preparation thereof” (Snow Brand Milk Products Co., Ltd., priority 1993, dated 1997)
